From ChEMBL document CHEMBL3988442, “University of Dundee, Small-Polar-MMV Screening Library” (2021).

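Assay on Mycobacterium tuberculosis, filed only as a heat shock assay from Cornell; the read-out is not stated. The concentration is filed as 10 mM, unlikely as a test dose, so the dose is not known. The record gives no direction; compounds that gave an IC50 in retests scored well above the rest, so higher reads as stronger inhibition. Of about 69,000 compounds tested this way, about 930 (1.4%) reached 50% or more in at least one test.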

Each number is a percent effect as filed. The record does not define 0% and 100%; most values in the screen are far below 50% and negative numbers occur (in some assays of this library far below -100). Compounds were drawn at random from those tested, without regard to their results.

For CCOC(=O)N1[C@@H](c2ccco2)[C@@H](CO)C[C@]12CCCCNC2=O the result was 28.92%.
For Cc1ccoc1-c1nnc(CN2CCCC(Cn3cncn3)C2)o1 (centres unmarked) the result was -28.2%.
For CNC(=O)N1Cc2cc(F)ccc2C2(CCN(C)CC2)C1.Cl the result was 7.15%.
For O=C(O)C(F)(F)F.O=C(O)C(F)(F)F.c1cncc(-c2ncnc3c2CCN(Cc2ccsc2)CC3)c1 the result was -21.9%.
For Cc1cc(C)n(C2CN(CC(=O)NCc3ccccn3)C2)n1 the result was -2.617%.
For CC(C)CN1CCc2[nH]cnc2C12CCN(C(=O)c1cccnc1)CC2 the result was 6.181%.
For O=C(NCC1CC1)c1nc(COc2ccc3c(c2)OCO3)no1 the result was 14.35%.
For O=C1CN(CCCNS(=O)(=O)c2cccc(C(=O)NC3CC3)c2)CCN1 the result was 30.7%.
For COc1cc(C2CC(=O)Oc3cc(C)[nH]c(=O)c32)ccc1O (centres unmarked) the result was 7.561%.
For COc1ccc(C(C)N(C)Cc2c(C(C)C)[nH]c3ncccc23)cc1 (centres unmarked) the result was -18.63%.
For COCCNC(=O)c1nc2c(s1)CCCN2Cc1ccccc1 the result was 40.21%.
For CN(C(=O)CN1CCCC1Cc1ccccc1)c1ccccc1 (centres unmarked) the result was 18.1%.
For CNC(=O)CN(C)C(=O)c1cc(Cl)c(Cl)n1C the result was -26.34%.
For O=C(O)C(F)(F)F.O=C(O)C(F)(F)F.[H][C@]12C[C@@H](C(=O)N(C)Cc3ccccn3)CO[C@@]1([H])CCN(C)C2 the result was 42.17%.
For Cc1ncc(CN2CCN(c3ccc4nncn4n3)C(C)C2)s1 (centres unmarked) the result was -0.3299%.
For CCC/C=C/c1ccc(CN2CCCC2)cn1 the result was 27.24%.
For CC(C)OCCCNC(=O)CS(=O)(=O)Cc1ccc(Cl)cc1 the result was -8.983%.
For Cn1nccc1C(=O)N1CCCC1c1[nH]ncc1C(N)=O (centres unmarked) the result was 0.6562%.
For Fc1cnc(N2CCC3(CC2)CN(Cc2ccccn2)CCO3)nc1.O=C(O)C(F)(F)F.O=C(O)C(F)(F)F the result was -22.66%.
For CCC1(c2ccc(NS(=O)(=O)c3cccs3)cc2)CCC(=O)NC1=O (centres unmarked) the result was -39.22%.
For COc1ccc(C(O)CNc2c(C#N)c(=O)n(C)c(=O)n2C)cc1 (centres unmarked) the result was 19.8%.
For CC[C@@H]1N(CC2CCOCC2)CCC[C@]12CCC(=O)N2.O=C(O)C(F)(F)F the result was -7.389%.
For O=C(NC1CC1)c1cc2c(s1)CCN2C(=O)C1CC1 the result was 25.55%.
For OCCOCCNCC1(c2ccc(F)cc2)CCOC1 (centres unmarked) the result was -17.87%.
For Cc1cc(CNC2(c3ccc(Cl)cc3)CC2)no1 the result was -8.145%.
For CCS(=O)(=O)NCCNCc1ccc(Cl)c2cccnc12 the result was -15.64%.
For CCc1ncncc1C(=O)N1CCN(Cc2ccco2)CC1 the result was -12.56%.
For Clc1cnccc1N1CCCC2(CCCOC2)C1 (centres unmarked) the result was -46.41%.
For COc1ccc(CNC(=O)Nc2cccnc2N2CCCC2)cc1OC the result was -16.48%.
For CN(C)C(=O)CN1CCC2(CCCN(Cc3cccs3)C2)C1=O.O=C(O)C(F)(F)F (centres unmarked) the result was 3.671%.
For Cc1ccc(-c2noc(CN3CCC(c4ccn[nH]4)CC3)n2)cc1 the result was 18.1%.
For COCC(=O)N1CCc2ncc(Cn3cncn3)n2CC1 the result was -6.83%.
For CC(C)N(CCNc1nc(C2CCCC2)nc2c1cnn2C)C(C)C the result was 102.6%.
For Cc1ccc2c(c1)CN(C(=O)c1cccnc1)C(CN(C)C)CO2.Cl (centres unmarked) the result was -1.686%.
For Cc1noc(C)c1CNC(=O)c1cn(CCC2CCCCN2)nn1 (centres unmarked) the result was -10.11%.
For O=C(O)C(F)(F)F.c1ccc(OCc2noc3c2CN(c2ncccn2)CC3)nc1 the result was -1.324%.
For NC(=O)Cn1nc(-c2ccccc2F)ccc1=O the result was 9.465%.
For CN1CCC(N2Cc3nc(N)ncc3C2=O)CC1 the result was -6.315%.
For CCN(Cc1ccccc1)S(=O)(=O)C1CCS(=O)(=O)CC1 the result was 0.01029%.
For Cc1ccc(C(O)CN2CCN(Cc3nccn3C)CC2)cc1C (centres unmarked) the result was -9.208%.
For CCOc1ccccc1OC1CCN(C(=O)c2cc[nH]n2)CC1 the result was 0.8282%.
For Cc1cc2c(=O)n3c(nc2s1)CCN(Cc1cncn1C)CC3.Cl the result was 10.91%.
For Cc1nc(CN2CCc3nn(C)c(=O)cc3C2)oc1C the result was -0.5944%.
For CC(NC(=O)NCCCN1CCCCCC1=O)c1nncn1C (centres unmarked) the result was -25.7%.
For CC(C)OC(=O)N1CCCC(c2nccn2Cc2ccncc2)C1 (centres unmarked) the result was -12.5%.
For Cc1cnc(CN(C)CC2CCCN2c2cccnn2)cn1 (centres unmarked) the result was -7.658%.
For CCOCc1cccc(NCc2c[nH]nc2-c2cccnc2)c1 the result was -10.62%.
For CCOCc1nccc(-c2ccc(OCC)c(C(=O)O)c2)n1 the result was -16.85%.
For COCC1CN(S(=O)(=O)N(C)C)Cc2cnn(CC3CCCC3)c21.O=C(O)C(F)(F)F (centres unmarked) the result was -10.27%.
For CCc1ccc(OCC(O)CN2CCN(S(C)(=O)=O)CC2)cc1 (centres unmarked) the result was -11.08%.
For Cc1noc(C)c1-c1cccc(C2CCCNC2)n1 (centres unmarked) the result was 23.15%.
For CC(C)CC(NC(=O)c1ccn(C)c(=O)c1)c1ccccc1 (centres unmarked) the result was -2.832%.
For COc1ccc(NC(=O)N(C)Cc2ccco2)cn1 the result was 7.531%.
For CCO[C@H]1C[C@@H](O)C12CCN(C(=O)CC(F)(F)F)CC2 the result was -5.337%.
For COCCN(Cc1ccoc1)C(=O)CSc1ccc(F)cc1 the result was -4.808%.
For Cn1cc(-c2cnc(-c3ccnn3C)nc2)cc1C(=O)NC1CC1 the result was 12.01%.
For COCCN(Cc1ccccn1)C(=O)CC1OCCc2sccc21 (centres unmarked) the result was 4.898%.
For O=C(c1ccncn1)N1CCC[C@]2(C[C@@H](OCC3CC3)CO2)C1 the result was 1.954%.
For CC1CCCN(Cc2cccc(C(=O)Nc3nccs3)c2)C1 (centres unmarked) the result was 8.726%.

Some entries from above, unchanged:

{"compound": "COc1cc(C2CC(=O)Oc3cc(C)[nH]c(=O)c32)ccc1O", "stereo": "centres unmarked", "Percent Effect": 7.561}
{"compound": "COCC1CN(S(=O)(=O)N(C)C)Cc2cnn(CC3CCCC3)c21.O=C(O)C(F)(F)F", "stereo": "centres unmarked", "Percent Effect": -10.27}
{"compound": "COc1ccc(CNC(=O)Nc2cccnc2N2CCCC2)cc1OC", "Percent Effect": -16.48}
{"compound": "O=C1CN(CCCNS(=O)(=O)c2cccc(C(=O)NC3CC3)c2)CCN1", "Percent Effect": 30.7}
{"compound": "Cn1nccc1C(=O)N1CCCC1c1[nH]ncc1C(N)=O", "stereo": "centres unmarked", "Percent Effect": 0.6562}
{"compound": "COc1ccc(C(O)CNc2c(C#N)c(=O)n(C)c(=O)n2C)cc1", "stereo": "centres unmarked", "Percent Effect": 19.8}
{"compound": "CCS(=O)(=O)NCCNCc1ccc(Cl)c2cccnc12", "Percent Effect": -15.64}